Reference: article doi:10.1101/2024.10.07.616933
Where a chain is given by its changes, count along the chain named. Names may count otherwise. No constants are given. Whether binding was seen depends on the method and setting. For some assays here: In cells and extracts the contact can be indirect. Where a sequence is shown, tags or fusion partners need not be part of it.

By UniProt entry, the sequences of proteins in these tests, tags left out. Where a name states a change or a piece, a line headed by the entry shows the natural chain unless it says otherwise.
UniProt Q96SW2: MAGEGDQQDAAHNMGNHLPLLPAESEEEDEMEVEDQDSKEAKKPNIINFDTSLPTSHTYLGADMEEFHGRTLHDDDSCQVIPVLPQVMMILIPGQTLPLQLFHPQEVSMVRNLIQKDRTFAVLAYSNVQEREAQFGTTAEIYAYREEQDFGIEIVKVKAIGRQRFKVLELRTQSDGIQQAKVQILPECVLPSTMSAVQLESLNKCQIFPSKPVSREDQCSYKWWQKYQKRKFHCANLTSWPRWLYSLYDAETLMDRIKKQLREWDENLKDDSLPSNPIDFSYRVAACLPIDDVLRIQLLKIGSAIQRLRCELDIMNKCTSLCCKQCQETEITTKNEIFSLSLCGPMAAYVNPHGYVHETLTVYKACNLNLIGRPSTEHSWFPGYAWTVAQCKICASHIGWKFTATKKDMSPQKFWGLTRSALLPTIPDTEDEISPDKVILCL
UniProt Q16531: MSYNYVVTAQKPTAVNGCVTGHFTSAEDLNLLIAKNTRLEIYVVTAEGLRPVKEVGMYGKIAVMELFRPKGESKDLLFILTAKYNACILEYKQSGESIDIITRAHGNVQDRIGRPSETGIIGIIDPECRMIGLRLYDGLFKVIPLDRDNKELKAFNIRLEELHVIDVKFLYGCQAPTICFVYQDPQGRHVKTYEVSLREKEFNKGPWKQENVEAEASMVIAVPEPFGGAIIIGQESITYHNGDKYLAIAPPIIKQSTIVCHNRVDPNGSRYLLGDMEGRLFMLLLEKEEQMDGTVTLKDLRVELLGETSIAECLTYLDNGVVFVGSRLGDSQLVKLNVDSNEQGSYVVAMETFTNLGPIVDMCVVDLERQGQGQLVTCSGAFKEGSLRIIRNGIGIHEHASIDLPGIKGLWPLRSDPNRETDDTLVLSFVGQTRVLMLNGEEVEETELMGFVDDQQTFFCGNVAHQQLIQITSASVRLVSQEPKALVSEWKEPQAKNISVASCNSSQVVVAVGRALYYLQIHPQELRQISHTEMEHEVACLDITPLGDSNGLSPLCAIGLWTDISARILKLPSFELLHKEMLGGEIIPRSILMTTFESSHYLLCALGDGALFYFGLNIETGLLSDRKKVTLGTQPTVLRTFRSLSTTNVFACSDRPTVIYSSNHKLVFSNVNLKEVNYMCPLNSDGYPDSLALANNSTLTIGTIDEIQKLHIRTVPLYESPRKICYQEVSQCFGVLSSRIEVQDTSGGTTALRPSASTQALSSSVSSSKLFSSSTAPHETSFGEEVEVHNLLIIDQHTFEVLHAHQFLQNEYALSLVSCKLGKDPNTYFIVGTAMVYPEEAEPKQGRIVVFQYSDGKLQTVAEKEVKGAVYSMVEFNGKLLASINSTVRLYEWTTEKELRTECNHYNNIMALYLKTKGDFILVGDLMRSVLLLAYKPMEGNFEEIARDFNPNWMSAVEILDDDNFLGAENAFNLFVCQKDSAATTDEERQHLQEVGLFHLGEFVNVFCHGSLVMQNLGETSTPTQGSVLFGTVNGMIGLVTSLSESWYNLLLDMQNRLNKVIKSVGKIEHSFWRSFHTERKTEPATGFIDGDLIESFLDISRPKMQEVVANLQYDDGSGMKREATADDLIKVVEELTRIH

B1: full-length VAV1 RT-loop mutant (R798M, S799R), NanoLuc fusion (protein, UniProt P15498 1-845)
chain: MELWRQCTHWLIQCRVLPPSHRVTWDGAQVCELAQALRDGVLLCQLLNNLLPHAINLREVNLRPQMSQFLCLKNIRTFLSTCCEKFGLKRSELFEAFDLFDVQDFGKVIYTLSALSWTPIAQNRGIMPFPTEEESVGDEDIYSGLSDQIDDTVEEDEDLYDCVENEEAEGDEIYEDLMRSEPVSMPPKMTEYDKRCCCLREIQQTEEKYTDTLGSIQQHFLKPLQRFLKPQDIEIIFINIEDLLRVHTHFLKEMKEALGTPGAANLYQVFIKYKERFLVYGRYCSQVESASKHLDRVAAAREDVQMKLEECSQRANNGRFTLRDLLMVPMQRVLKYHLLLQELVKHTQEAMEKENLRLALDAMRDLAQCVNEVKRDNETLRQITNFQLSIENLDQSLAHYGRPKIDGELKITSVERRSKMDRYAFLLDKALLICKRRGDSYDLKDFVNLHSFQVRDDSSGDRDNKKWSHMFLLIEDQGAQGYELFFKTRELKKKWMEQFEMAISNIYPENATANGHDFQMFSFEETTSCKACQMLLRGTFYQGYRCHRCRASAHKECLGRVPPCGRHGQDFPGTMKKDKLHRRAQDKKRNELGLPKMEVFQEYYGLPPPPGAIGPFLRLNPGDIVELTKAEAEQNWWEGRNTSTNEIGWFPCNRVKPYVHGPPQDLSVHLWYAGPMERAGAESILANRSDGTFLVRQRVKDAAEFAISIKYNVEVKHIKIMTAEGLYRITEKKAFRGLTELVEFYQQNSLKDCFKSLDTTLQFPFKEPEKRTISRPAVGSTKYFGTAKARYDFCARDMRELSLKEGDIIKILNKKGQQGWWRGEIYGRVGWFPANYVEEDYSEYC
B2: MRT-Vav1-E20: GST-TEV-(Vav1 SH3 domain K782-845 with mutations R798M, S799R) (domain or fragment, UniProt P15498 782-845)
chain: KYFGTAKARYDFCARDMRELSLKEGDIIKILNKKGQQGWWRGEIYGRVGWFPANYVEEDYSEYC
B3: MRT-Vav2SH3-E01: GST-TEV-(Vav2 SH3 domain R816-878Q) (domain or fragment, UniProt P52735 816-878)
chain: RVIGTAVARYNFAARDMRELSLREGDVVRIYSRIGGDQGWWKGETNGRIGWFPSTYVEEEGIQ
B4: MRT-Vav3 SH3-E01: GST-GGG-TEV-Vav3(K788-847E) (domain or fragment, UniProt Q9UKW4 788-847)
chain: KVLGIAIARYDFCARDMRELSLLKGDVVKIYTKMSANGWWRGEVNGRVGWFPSTYVEEDE
B5: MRT-Vav3 SH3-E02: GST-GGG-TEV-Vav3(K788-847E, Y818L, T819N, M821K, S822G, A823Q, N824Q) (domain or fragment, UniProt Q9UKW4 788-847)
chain: B4 chain with Y31L, T32N, M34K, S35G, A36Q, N37Q

Experiments:
[1] = molecular target: HaloTag-CRBN (human) (UniProt Q96SW2); assay: FRET or BRET
[2] = molecular target: 6His-tagged CRBN/DDB1 complex (MRT-CRBN-B11/DDB1-B05) (human) (UniProt Q96SW2+Q16531); assay: AlphaScreen or HTRF

binding [1] | binding [2] | Binder
no binding (tested: Cpd. 6 up to 10 μM) | – | B1
– | no binding | B2
– | no binding | B3
– | no binding | B4
– | no binding | B5
